Assay results reported in patent publication US12263155B2, “Combinations of monoamine oxidase inhibitors and serotonin receptor agonists and their therapeutic use” (Remedi, Inc., priority 2022, dated 2025).

Assay: Exemplary administration of CX157, DMT and combinations: subjective effects
Format: in vivo
[1] = 0.03-0.07 mg/kg or 2.5-20 mg DMT freebase, 2-3 hours after 175 mg CX157
[2] = higher doses of DMT (0.2-0.6 mg/kg or 25-200 mg), 2-3 hours after 175 mg CX157

| SMILES | subjective effects (175 mg CX157 alone, 2.5 hours after administration) | duration of smooth, steady, calm energy [1] | onset of subjective effects [1] | total duration of subjective effects [1] | subjective effects (25-100 mg DMT freebase in capsule alone, over 1 hour) | onset of psychedelic effects [2] | total duration of psychedelic effects [2] |
| --- | --- | --- | --- | --- | --- | --- | --- |
| O=S1(=O)c2ccc(F)cc2Oc2cc(OCC(F)(F)F)ccc21 [CX157, 3-fluoro-7(2,2,2-trifluorethoxy)phenoxathiine-10,10-dioxide] | No subjective effects | – | – | – | – | – | – |
| CN(C)CCc1c[nH]c2ccccc12 [DMT, N,N-dimethyltryptamine] | – | around 6 hours | around one hour | around 8 hours | No subjective effects | around 40 minutes | around 2 hours |
